Results are given in words; binding and its absence hold for the method and conditions named.

Sequences of proteins named here, by UniProt entry; tags and fusion partners are left off. Residues count along the entry.
UniProt Q9ERS7, residues 22-574: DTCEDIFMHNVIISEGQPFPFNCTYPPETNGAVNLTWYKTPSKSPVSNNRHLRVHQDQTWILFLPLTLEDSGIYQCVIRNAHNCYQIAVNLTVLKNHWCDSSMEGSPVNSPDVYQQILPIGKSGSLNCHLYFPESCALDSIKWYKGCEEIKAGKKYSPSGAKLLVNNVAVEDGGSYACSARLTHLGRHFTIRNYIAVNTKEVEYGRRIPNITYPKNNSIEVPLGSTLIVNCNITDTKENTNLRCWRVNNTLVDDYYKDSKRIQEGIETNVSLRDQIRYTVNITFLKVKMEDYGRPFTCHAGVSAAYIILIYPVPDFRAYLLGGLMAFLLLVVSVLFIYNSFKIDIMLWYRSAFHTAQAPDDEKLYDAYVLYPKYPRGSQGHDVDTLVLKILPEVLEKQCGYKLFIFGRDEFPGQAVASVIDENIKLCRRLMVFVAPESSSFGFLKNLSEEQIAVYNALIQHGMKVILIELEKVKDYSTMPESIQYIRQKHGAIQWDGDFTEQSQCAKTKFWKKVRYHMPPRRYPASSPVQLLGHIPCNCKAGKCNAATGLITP

The test deals with membrane mouse IL-36R (mouse) (UniProt Q9ERS7). Description: binding to mouse IL-36R; the legend and Example 8 say membrane mouse IL-36R on transfected HEK293 cells by FACS, but the y axis on the sheet is OD450 nm. Background: A flow cytometer gives signals particle by particle.

B1: BI655130 (antibody, V domains shown)
VH: QVQLVQSGAEVKKPGASVKVSCKASGYSFTSSWIHWVKQAPGQGLEWMGEINPGNVRTNYNENFRNKVTMTVDTSISTAYMELSRLRSDDTAVYYCTVVFYGEPYFPYWGQGTLVTVSS
VL: QIVLTQSPGTLSLSPGERATMTCTASSSVSSSYFHWYQQKPGQAPRLWIYRTSRLASGVPDRFSGSGSGTDFTLTISRLEPEDAATYYCHQFHRSPLTFGAGTKLEIK
In the case of B1, the binding result is on record as “no binding (tested: 10 µg/mL)”.

B2: REGN14 (antibody, V domains shown)
VH: EVQLVESGGDLVQPGRSLRLSCAASGFTFDDYAMHWVRQAPGKGLEWVSVISWNSDVIAYSDSVKGRFTISRDNAKNSLYLQMNSLRTEDTALYYCTKGHKWSFFDYWGQGTLVTVSS
VL: EIVLTQSPATLSLSPGERATLSCRASQSISSYLAWYQQKPGQAPRLLIFNVANRATDIPARFSGSGSGTDFTLTISSLEPEDFAVYYCQQRSNWPLTFGGGTKVEIK
On to B2, for which the binding result is listed as “no binding (tested: 10 µg/mL)”.

B3: ANB019 (antibody, V domains shown)
VH: QVQLVQSGAEVKKPGASVKVSCKASGYTFTNYWMNWVRQAPRQGLEWMGMFHPTGDVTRLNQKFKDRVTMTRDTSTSTVYMELSSLRSEDTAVYYCARTTSMIIGGFAYWGQGTLVTVSS
VL: DIVMTQTPLSLSVTPGQPASISCRSSKSLLHRNAITYFYWYLHKPGQPPQLLIYQMSNLASGVPDRFSGSGSGTDFTLKISRVEAEDVGVYYCAQNLELPLTFGGGTKVEIK
Consider B3, for which the binding result is on record as “no binding (tested: 10 µg/mL)”.
